# Assay results from the supplement of paper PMC12067093, “Discovery and optimisation of a covalent ligand for TRIM25 and its application to targeted protein ubiquitination” (Chemical Science, 2025).
# Protein sequences, listed by entry. Tags and fused reporters are not part of them. Lines headed by an entry give the natural chain unless they say otherwise; changes in a name come on top.
# UniProt Q9H3U1: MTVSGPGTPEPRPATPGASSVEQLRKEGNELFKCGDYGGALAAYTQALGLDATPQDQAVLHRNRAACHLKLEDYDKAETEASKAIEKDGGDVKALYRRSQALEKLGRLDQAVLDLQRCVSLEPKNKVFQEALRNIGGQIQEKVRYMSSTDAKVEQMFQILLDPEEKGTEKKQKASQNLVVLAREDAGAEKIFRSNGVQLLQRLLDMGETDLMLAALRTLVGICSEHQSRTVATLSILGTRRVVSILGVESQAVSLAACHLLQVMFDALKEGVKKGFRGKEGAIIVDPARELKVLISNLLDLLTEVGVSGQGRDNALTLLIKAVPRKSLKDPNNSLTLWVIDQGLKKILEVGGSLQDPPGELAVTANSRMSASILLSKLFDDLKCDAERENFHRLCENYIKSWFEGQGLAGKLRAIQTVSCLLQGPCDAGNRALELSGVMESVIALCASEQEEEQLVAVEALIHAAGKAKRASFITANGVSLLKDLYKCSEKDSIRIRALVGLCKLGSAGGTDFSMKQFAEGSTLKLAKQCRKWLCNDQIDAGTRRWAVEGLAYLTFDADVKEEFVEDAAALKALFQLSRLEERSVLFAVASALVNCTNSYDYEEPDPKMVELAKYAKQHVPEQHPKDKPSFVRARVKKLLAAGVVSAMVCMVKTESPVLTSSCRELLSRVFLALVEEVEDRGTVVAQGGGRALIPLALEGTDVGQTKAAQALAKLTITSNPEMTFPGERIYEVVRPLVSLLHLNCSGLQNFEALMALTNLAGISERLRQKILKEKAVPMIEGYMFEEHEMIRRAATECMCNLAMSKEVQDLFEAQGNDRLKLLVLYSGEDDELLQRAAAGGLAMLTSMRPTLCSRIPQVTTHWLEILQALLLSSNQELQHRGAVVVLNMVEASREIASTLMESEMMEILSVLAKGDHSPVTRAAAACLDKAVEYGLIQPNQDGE
# UniProt Q9Y3C8: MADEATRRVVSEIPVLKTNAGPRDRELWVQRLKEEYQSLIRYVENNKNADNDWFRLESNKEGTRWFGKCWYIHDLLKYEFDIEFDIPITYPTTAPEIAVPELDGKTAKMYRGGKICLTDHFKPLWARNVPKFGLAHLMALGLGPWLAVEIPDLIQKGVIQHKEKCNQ
# UniProt Q9BRT2: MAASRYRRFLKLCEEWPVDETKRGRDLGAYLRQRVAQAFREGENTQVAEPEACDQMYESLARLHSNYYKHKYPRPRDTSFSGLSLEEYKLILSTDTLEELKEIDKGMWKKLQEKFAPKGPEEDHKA
# UniProt P35125: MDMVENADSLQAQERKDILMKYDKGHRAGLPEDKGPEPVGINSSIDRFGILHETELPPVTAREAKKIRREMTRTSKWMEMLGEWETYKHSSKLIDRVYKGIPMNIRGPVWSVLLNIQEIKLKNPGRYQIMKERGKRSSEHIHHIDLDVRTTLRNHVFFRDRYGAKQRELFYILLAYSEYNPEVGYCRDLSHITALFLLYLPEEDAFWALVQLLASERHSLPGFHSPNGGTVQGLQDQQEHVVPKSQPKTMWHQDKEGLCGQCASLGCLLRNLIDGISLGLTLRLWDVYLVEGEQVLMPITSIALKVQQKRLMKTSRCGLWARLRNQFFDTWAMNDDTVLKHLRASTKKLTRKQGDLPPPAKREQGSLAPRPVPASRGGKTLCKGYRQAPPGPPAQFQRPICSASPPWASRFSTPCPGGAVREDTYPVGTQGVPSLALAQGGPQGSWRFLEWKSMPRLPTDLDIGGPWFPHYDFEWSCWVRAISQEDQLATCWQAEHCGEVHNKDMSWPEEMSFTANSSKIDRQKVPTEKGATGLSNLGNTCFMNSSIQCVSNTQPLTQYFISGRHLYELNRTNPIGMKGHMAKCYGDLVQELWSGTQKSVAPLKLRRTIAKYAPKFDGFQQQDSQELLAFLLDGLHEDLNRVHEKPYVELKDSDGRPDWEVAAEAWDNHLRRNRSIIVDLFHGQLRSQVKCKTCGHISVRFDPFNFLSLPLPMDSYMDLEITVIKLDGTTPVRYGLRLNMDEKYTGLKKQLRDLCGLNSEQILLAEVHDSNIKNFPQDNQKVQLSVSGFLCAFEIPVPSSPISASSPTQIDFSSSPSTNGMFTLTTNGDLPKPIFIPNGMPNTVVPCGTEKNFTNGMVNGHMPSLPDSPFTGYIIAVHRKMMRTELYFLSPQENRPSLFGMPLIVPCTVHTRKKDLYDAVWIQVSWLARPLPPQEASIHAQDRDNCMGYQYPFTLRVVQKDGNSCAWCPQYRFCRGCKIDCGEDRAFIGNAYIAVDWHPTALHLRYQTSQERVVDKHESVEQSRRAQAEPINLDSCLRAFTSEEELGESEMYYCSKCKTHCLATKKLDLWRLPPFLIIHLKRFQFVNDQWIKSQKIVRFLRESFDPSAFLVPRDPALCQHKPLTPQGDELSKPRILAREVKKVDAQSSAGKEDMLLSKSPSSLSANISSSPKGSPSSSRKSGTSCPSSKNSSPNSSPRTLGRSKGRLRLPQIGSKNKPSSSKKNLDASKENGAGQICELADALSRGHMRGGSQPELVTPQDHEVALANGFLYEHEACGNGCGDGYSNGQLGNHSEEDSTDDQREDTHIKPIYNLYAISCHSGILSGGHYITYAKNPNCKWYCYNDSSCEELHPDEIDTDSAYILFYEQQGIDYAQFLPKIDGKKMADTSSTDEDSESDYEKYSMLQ
# UniProt Q9NYU2: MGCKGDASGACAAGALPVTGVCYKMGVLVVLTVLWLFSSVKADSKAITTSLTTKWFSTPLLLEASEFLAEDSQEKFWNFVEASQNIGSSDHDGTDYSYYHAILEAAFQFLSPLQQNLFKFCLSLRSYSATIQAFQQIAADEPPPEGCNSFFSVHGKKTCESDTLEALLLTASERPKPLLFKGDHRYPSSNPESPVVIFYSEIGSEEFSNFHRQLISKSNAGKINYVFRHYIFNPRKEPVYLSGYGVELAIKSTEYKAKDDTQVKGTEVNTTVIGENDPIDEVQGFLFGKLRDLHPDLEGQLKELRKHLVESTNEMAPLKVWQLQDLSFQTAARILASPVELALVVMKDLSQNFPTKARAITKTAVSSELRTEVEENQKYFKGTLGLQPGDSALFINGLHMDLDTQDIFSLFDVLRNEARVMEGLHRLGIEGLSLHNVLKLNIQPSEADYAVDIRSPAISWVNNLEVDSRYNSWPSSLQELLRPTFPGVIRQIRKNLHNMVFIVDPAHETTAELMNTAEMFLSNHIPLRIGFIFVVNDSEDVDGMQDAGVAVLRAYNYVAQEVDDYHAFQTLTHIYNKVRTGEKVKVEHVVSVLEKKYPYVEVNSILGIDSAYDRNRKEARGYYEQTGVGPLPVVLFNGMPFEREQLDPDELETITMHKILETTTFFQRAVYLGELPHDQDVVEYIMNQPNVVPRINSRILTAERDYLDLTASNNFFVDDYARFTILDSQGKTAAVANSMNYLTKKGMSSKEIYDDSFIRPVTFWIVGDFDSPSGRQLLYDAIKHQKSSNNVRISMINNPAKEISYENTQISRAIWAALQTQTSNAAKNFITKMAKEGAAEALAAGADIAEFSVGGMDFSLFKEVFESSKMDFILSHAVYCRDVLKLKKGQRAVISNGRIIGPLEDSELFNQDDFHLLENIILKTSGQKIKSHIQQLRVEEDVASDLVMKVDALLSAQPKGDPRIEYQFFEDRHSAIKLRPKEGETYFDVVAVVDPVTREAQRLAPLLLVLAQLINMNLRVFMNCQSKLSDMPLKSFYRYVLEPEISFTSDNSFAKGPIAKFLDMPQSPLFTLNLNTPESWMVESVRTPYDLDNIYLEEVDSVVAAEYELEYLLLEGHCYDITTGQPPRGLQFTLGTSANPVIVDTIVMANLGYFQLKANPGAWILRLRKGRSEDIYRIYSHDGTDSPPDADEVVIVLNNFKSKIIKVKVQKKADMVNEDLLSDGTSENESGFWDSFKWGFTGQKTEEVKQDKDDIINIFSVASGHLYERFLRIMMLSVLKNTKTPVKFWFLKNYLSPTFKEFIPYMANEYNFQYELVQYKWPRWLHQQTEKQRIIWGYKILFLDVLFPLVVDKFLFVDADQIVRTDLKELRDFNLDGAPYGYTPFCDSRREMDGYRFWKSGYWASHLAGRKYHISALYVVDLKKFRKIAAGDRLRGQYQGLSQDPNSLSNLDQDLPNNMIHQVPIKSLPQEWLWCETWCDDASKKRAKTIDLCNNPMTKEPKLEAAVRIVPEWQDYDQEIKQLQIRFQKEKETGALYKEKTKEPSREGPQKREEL
# UniProt Q93009, whole entry, looked up: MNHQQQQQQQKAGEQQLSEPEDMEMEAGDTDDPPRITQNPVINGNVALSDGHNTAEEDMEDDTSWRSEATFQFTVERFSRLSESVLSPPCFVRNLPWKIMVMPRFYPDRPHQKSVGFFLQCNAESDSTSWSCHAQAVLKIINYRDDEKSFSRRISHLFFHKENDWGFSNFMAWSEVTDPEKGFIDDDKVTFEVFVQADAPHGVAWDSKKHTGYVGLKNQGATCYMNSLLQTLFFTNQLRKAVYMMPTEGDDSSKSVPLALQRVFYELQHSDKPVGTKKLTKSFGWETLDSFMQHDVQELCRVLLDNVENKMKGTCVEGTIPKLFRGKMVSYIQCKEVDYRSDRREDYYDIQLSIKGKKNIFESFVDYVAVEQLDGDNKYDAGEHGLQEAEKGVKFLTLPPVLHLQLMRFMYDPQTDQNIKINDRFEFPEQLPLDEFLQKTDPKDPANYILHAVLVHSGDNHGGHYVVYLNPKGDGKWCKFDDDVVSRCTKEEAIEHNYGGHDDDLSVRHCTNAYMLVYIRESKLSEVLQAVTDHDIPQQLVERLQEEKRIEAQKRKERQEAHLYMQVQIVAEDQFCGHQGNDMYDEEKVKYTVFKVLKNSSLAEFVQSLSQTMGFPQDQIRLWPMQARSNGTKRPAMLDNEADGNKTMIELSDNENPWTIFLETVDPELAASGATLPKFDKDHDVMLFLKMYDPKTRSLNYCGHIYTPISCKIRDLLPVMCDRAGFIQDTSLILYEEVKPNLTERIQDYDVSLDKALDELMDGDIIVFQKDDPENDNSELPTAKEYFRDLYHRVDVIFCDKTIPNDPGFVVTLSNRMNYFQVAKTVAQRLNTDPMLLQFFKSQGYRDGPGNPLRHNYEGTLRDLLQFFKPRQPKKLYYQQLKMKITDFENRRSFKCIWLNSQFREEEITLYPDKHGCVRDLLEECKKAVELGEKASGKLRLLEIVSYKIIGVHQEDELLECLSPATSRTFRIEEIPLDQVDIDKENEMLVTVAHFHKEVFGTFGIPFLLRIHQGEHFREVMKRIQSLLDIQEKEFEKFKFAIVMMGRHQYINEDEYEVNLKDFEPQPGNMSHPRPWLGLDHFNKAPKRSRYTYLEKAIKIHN
# UniProt A6NIH7: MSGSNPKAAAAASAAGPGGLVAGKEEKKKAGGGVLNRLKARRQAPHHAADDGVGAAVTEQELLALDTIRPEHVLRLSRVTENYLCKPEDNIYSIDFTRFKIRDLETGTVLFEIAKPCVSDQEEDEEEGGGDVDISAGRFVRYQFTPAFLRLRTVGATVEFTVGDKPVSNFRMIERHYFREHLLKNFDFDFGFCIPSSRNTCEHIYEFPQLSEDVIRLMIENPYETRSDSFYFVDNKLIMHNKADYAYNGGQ
# UniProt Q13107: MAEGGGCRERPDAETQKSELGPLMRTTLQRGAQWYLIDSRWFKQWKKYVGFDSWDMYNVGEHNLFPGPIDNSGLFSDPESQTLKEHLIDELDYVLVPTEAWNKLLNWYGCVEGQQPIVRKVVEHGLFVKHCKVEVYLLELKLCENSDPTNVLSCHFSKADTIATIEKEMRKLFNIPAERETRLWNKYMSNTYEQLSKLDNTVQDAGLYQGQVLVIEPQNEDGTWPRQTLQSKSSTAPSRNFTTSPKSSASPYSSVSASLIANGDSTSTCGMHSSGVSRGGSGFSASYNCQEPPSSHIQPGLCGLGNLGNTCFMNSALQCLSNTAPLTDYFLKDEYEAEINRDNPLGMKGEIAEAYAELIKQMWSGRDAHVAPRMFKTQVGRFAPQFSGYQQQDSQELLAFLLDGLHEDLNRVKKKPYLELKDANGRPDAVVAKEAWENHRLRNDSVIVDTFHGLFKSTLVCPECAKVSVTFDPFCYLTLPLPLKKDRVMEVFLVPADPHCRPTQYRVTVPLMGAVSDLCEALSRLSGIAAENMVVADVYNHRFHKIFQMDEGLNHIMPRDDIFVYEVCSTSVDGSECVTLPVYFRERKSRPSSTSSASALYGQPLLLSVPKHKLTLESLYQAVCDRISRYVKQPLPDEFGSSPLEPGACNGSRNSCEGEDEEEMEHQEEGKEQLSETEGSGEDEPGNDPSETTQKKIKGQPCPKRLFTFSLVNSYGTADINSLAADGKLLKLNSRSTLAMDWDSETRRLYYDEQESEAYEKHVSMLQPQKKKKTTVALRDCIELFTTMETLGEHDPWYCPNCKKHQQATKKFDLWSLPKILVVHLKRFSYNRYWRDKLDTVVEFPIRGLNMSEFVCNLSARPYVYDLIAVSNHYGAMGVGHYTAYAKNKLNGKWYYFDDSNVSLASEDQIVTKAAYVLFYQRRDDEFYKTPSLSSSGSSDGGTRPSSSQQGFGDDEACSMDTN
# The other results are listed elsewhere or left out.
# Compound: Cc1cc(ccc1-c1ccccc1)C(=O)N1CCCN(CC1)C(=O)CCl [compound 10]
# Test: probe-labelled cysteine peptide fold change vs DMSO (competition) (log2 fold change); higher = less target engagement (more negative = stronger competition)
# Conditions: THP-1, incubation time: 4 h
# 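Note: competitive profiling in live THP-1 cells: cysteine peptides tagged with an iodoacetamide desthiobiotin (IA-DTB) probe, intensity after compound treatment relative to DMSO-treated cells.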
Target,probe-labelled cysteine peptide fold change (10 µM),probe-labelled cysteine peptide fold change (50 µM)
UNC45A_Q9H3U1_853_AAAGGLAMLTSMRPTLCSR (UniProt Q9H3U1),-0.0665,-0.199
UFC1_Q9Y3C8_69_CWYIHDLLK (UniProt Q9Y3C8),0.16,0.0466
UHRF2_Q96PU4_704_ASDSAEAIEAFQLTPQQQHLIREDCQNQK (UniProt Q96PU4),0.193,-0.2
UNK_Q9C0B0_147_NGLHCAFAHGPHDLR (UniProt Q9C0B0),0.168,-0.0329
URI1_O94763_268_NTNVNAMHQVTDSHTPCHK (UniProt O94763),-0.157,-0.238
USP24_Q9UPU5_1377_LSSSGSNCSSGSEGEPVALHAGICVR (UniProt Q9UPU5),0.0337,0.075
UHRF1_Q96T88_269_ELYANVVLGDDSLNDCR (UniProt Q96T88),-0.181,-0.0866
UQCC2_Q9BRT2_13_LCEEWPVDETK (UniProt Q9BRT2),0.106,0.189
UMPS_P11172_304_CHEFLIFEDR (UniProt P11172),0.122,0.192
USP6_P35125_584_CYGDLVQELWSGTQK (UniProt P35125),-0.0422,-0.202
UGGT1_Q9NYU2_1475_SLPQEWLWCETWCDDASK (UniProt Q9NYU2),0.0416,0.133
UNC13B_O14795_1352_QCAVLDLALDTIK (UniProt O14795),-0.00309,0.0603
USP40_Q9NVE5_172_LYHGTIVNQIVCK (UniProt Q9NVE5),-0.125,-0.337
UCHL5_Q9Y5K5_100_QVINNACATQAIVSVLLNCTHQDVHLGETLSEFK (UniProt Q9Y5K5),0.114,-0.0951
USP7_Q93009_961_IIGVHQEDELLECLSPATSR (UniProt Q93009),-0.243,0.108
USP6_P35125_981_IDCGEDR (UniProt P35125),-0.0569,-0.392
USP20_Q9Y2K6_393_SSSRPCSPVHHHEGHAK (UniProt Q9Y2K6),-0.214,-0.617
UNC119B_A6NIH7_201_NTCEHIYEFPQLSEDVIR (UniProt A6NIH7),0.0555,0.0712
UPF1_Q92900_683_QLILVGDHCQLGPVVMCK (UniProt Q92900),0.172,-0.219
UGP2_Q16851_276_RCEFVMEVTNK (UniProt Q16851),0.0627,0.165
UPP1_Q16831_17_AESHNDCPVR (UniProt Q16831),-0.314,-0.201

# Full records as entered above:
# USP7_Q93009_961_IIGVHQEDELLECLSPATSR (UniProt Q93009) as listed: probe-labelled cysteine peptide fold change (10 µM): -0.243; probe-labelled cysteine peptide fold change (50 µM): 0.108
# UNC119B_A6NIH7_201_NTCEHIYEFPQLSEDVIR (UniProt A6NIH7) as listed: probe-labelled cysteine peptide fold change (10 µM): 0.0555; probe-labelled cysteine peptide fold change (50 µM): 0.0712

# Further records

Target,probe-labelled cysteine peptide fold change (10 µM),probe-labelled cysteine peptide fold change (50 µM)
USP7_Q93009_334_MVSYIQCK (UniProt Q93009),-0.129,0.0485
UPF1_Q92900_133_DLPIHACSYCGIHDPACVVYCNTSK (UniProt Q92900),-0.021,-0.186
UGGT1_Q9NYU2_1024_VFMNCQSK (UniProt Q9NYU2),-0.42,0.417
USP4_Q13107_519_VTVPLMGAVSDLCEALSR (UniProt Q13107),-0.022,-0.156
UNC13D_Q70J99_699_DQGQAANMLCVVVNDMEQLR (UniProt Q70J99),-0.0585,-0.112
UGGT1_Q9NYU2_1475+1479_SLPQEWLWCETWCDDASK (UniProt Q9NYU2),-0.291,-0.0794
UCHL5_Q9Y5K5_191_EGPIDLGACNQDDWISAVRPVIEK (UniProt Q9Y5K5),-0.138,0.11
UBR7_Q8N806_99+101_CDCGNSK (UniProt Q8N806),-0.364,-1.41
USP9X_Q93008_1061_AICLDHAK (UniProt Q93008),0.267,0.565
USP15_Q9Y4E8_633+634_ISTETEETEGSLHCCK (UniProt Q9Y4E8),-0.567,-1.51
UPF2_Q9HAU5_632+641_LVATLHPCMSDVAEDLCSMLR (UniProt Q9HAU5),0.128,0.333
USP16_Q9Y5T5_509_EYCVNQK (UniProt Q9Y5T5),-0.507,-0.529
UQCRC1_P31930_380_LCTSATESEVAR (UniProt P31930),-0.0203,0.213
USP4_Q13107_464_STLVCPECAK (UniProt Q13107),-0.00729,-0.134
UNC45A_Q9H3U1_384_CDAERENFHR (UniProt Q9H3U1),-0.0746,-0.616
USP34_Q70CQ2_2062_DTLEGDNMYTCSHCGK (UniProt Q70CQ2),0.0436,0.0867
URB2_Q14146_205_AFGDVTAHLLQPCLVLR (UniProt Q14146),0.142,0.0509
URB1_O60287_78_ISVECVEIFQLLSGEK (UniProt O60287),0.0336,0.776
URB1_O60287_315_ELVHNFLMDLCCSLK (UniProt O60287),0.17,0.0192
USP39_Q53GS9_306_AHVSPHEMLQAVVLCSK (UniProt Q53GS9),0.113,0.301
USP7_Q93009_702_SLNYCGHIYTPISCK (UniProt Q93009),0.0209,-0.228
